Source: PubChem BioAssay AID1259405 (NCATS, 2018)
Assay: 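Mouse-designed siRNAs used to find CHO productivity engineering targets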 (primary screen). Cell system: Chinese hamster CHO-K1 ovary cells with stable secreted eGFP expression. Knock-down reagent: single siRNA against mouse genes, 0.8 pmol siRNA per well (2 µl of 400 nM stock). Time to read-out: 3 days. Detection: 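Per-well intracellular GFP measured by laser scanning cytometry, plus viability from ATP luminescence, each relative to plate median of non-targeting control wells, in %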. Reading the numbers: GFP, % of control: higher = more GFP per well, higher productivity; viability (ATP), % of control: higher = more viable cells (more ATP). Call rule: 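a knock-down is called active if GFP reaches 120% or more of non-targeting control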.
In all, the deposit lists about 50,000 reagents; this is an unselected part. About 4,000 of all reagents (8%) count as active. 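Mouse siRNA library applied to hamster cells; one well for each siRNA.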 A number with no mark means an inactive call. The numbers tell different reagents against one gene apart.

gene symbol	siRNA no.	GFP, % of control	viability (ATP), % of control
Cab39 (calcium binding protein 39)	1	94.8	104
Cab39 (calcium binding protein 39)	2	81.6	70.8
Pstpip1 (proline-serine-threonine phosphatase-interacting protein 1)	1	120 (active)	102
Pstpip1 (proline-serine-threonine phosphatase-interacting protein 1)	2	92.9	73
Pip5kl1 (phosphatidylinositol-4-phosphate 5-kinase-like 1)	1	63.9	79.4
Peli3 (pellino 3)	1	47.5	24.9
Peli3 (pellino 3)	2	59.9	71.1
Peli3 (pellino 3)	3	80.3	109
Aifm3 (apoptosis-inducing factor, mitochondrion-associated 3)	1	67.2	31.9
Aifm3 (apoptosis-inducing factor, mitochondrion-associated 3)	2	59.9	40.2
Aifm3 (apoptosis-inducing factor, mitochondrion-associated 3)	3	90.5	65.9
Frey1 (Frey regulator of sperm-oocyte fusion 1)	1	71.1	42.3
Frey1 (Frey regulator of sperm-oocyte fusion 1)	2	182 (active)	147
Frey1 (Frey regulator of sperm-oocyte fusion 1)	3	55.3	62.2
Gatad2b (GATA zinc finger domain containing 2B)	1	120 (active)	104
Gatad2b (GATA zinc finger domain containing 2B)	2	101	70.8
Gatad2b (GATA zinc finger domain containing 2B)	3	64.4	78.7
Eif4g1 (eukaryotic translation initiation factor 4, gamma 1)	1	45.7	30.7
Eif4g1 (eukaryotic translation initiation factor 4, gamma 1)	2	82.1	71.6
Eif4g1 (eukaryotic translation initiation factor 4, gamma 1)	3	106	72.3
Aloxe3 (arachidonate lipoxygenase 3)	1	61.6	99.5
Aloxe3 (arachidonate lipoxygenase 3)	2	67.2	85.1
Ergic2 (ERGIC and golgi 2)	1	56.3	92.1
Ergic2 (ERGIC and golgi 2)	2	57.4	72.5
Ergic2 (ERGIC and golgi 2)	3	90.9	70.8
Akr1b7 (aldo-keto reductase family 1, member B7)	1	135 (active)	59.9
Akr1b7 (aldo-keto reductase family 1, member B7)	2	82.2	53.9
Akr1b7 (aldo-keto reductase family 1, member B7)	3	69.1	58.8
Chrm3 (cholinergic receptor, muscarinic 3, cardiac)	1	72	77.2
Chrm3 (cholinergic receptor, muscarinic 3, cardiac)	2	84.5	69
Chrm3 (cholinergic receptor, muscarinic 3, cardiac)	3	67.8	89.5
Or6c211 (olfactory receptor family 6 subfamily C member 211)	1	85.1	96.7
Or6c211 (olfactory receptor family 6 subfamily C member 211)	2	101	86.3
Or6c211 (olfactory receptor family 6 subfamily C member 211)	3	93.3	86.8
Or14c41 (olfactory receptor family 14 subfamily C member 41)	1	57.6	30.6
Or14c41 (olfactory receptor family 14 subfamily C member 41)	2	88	68
Or14c41 (olfactory receptor family 14 subfamily C member 41)	3	61.3	85.8
Asprv1 (aspartic peptidase, retroviral-like 1)	1	119	97.2
Asprv1 (aspartic peptidase, retroviral-like 1)	2	113	70
Asprv1 (aspartic peptidase, retroviral-like 1)	3	61.7	80.2
Ctdspl2 (CTD small phosphatase like 2)	1	101	49.3
Ctdspl2 (CTD small phosphatase like 2)	2	91.4	107
Ctdspl2 (CTD small phosphatase like 2)	3	57.9	68.9
Smad7 (SMAD family member 7)	1	70.9	73.2
Smad7 (SMAD family member 7)	2	91.9	85.2
Smad7 (SMAD family member 7)	3	90.9	104
Kcne3	1	67.5	102
Kcne3	2	34.5	32.3
Kcne3	3	93.7	89
Cpa4 (carboxypeptidase A4)	1	57.9	85.7
Cpa4 (carboxypeptidase A4)	2	45.9	44.6
Cpa4 (carboxypeptidase A4)	3	46.4	66.5
Adgrb3 (adhesion G protein-coupled receptor B3)	1	139 (active)	96.5
Adgrb3 (adhesion G protein-coupled receptor B3)	2	57.2	59
Adgrb3 (adhesion G protein-coupled receptor B3)	3	85.5	62.6
Nt5c2 (5'-nucleotidase, cytosolic II)	1	90.2	92.1
Nt5c2 (5'-nucleotidase, cytosolic II)	2	38.4	52.2
Nt5c2 (5'-nucleotidase, cytosolic II)	3	81.9	101
Lca5l (Leber congenital amaurosis 5-like)	1	51.3	49.8
Lca5l (Leber congenital amaurosis 5-like)	2	62.8	85.3
Lca5l (Leber congenital amaurosis 5-like)	3	101	110
Slc25a38	1	102	125
Slc25a38	2	90.7	69.3
Slc25a38	3	74.9	98.2
Gorasp2 (golgi reassembly stacking protein 2)	1	103	79.1
Gorasp2 (golgi reassembly stacking protein 2)	2	79.9	72
Gorasp2 (golgi reassembly stacking protein 2)	3	92.3	46.9
Ppfia2	1	60.5	89
Ppfia2	2	121 (active)	98.4
4921504E06Rik (RIKEN cDNA 4921504E06 gene)	1	51.9	41.2
4921504E06Rik (RIKEN cDNA 4921504E06 gene)	2	82.9	80.5
4921504E06Rik (RIKEN cDNA 4921504E06 gene)	3	74.7	60.8
Ube2e2 (ubiquitin-conjugating enzyme E2E 2)	1	90.6	86.1
Ube2e2 (ubiquitin-conjugating enzyme E2E 2)	2	72.4	75.6
Ube2e2 (ubiquitin-conjugating enzyme E2E 2)	3	79.9	115
Adgra2 (adhesion G protein-coupled receptor A2)	1	78	68.9
Adgra2 (adhesion G protein-coupled receptor A2)	2	94.8	88
Adgra2 (adhesion G protein-coupled receptor A2)	3	140 (active)	75.7
Fam20c (FAM20C, golgi associated secretory pathway kinase)	1	80.7	79.4
Fam20c (FAM20C, golgi associated secretory pathway kinase)	2	67.1	56.7
Fam20c (FAM20C, golgi associated secretory pathway kinase)	3	117	124
Dhrs2 (dehydrogenase/reductase member 2)	1	32.8	35.4
Dhrs2 (dehydrogenase/reductase member 2)	2	76.9	83
Dhrs2 (dehydrogenase/reductase member 2)	3	114	72

Reformatted: 9 of the entries above.
gene symbol | siRNA no. | GFP, % of control | viability (ATP), % of control
Asprv1 (aspartic peptidase, retroviral-like 1) | 2 | 113 | 70
Asprv1 (aspartic peptidase, retroviral-like 1) | 3 | 61.7 | 80.2
Ctdspl2 (CTD small phosphatase like 2) | 1 | 101 | 49.3
Ctdspl2 (CTD small phosphatase like 2) | 2 | 91.4 | 107
Ctdspl2 (CTD small phosphatase like 2) | 3 | 57.9 | 68.9
Smad7 (SMAD family member 7) | 1 | 70.9 | 73.2
Smad7 (SMAD family member 7) | 2 | 91.9 | 85.2
Smad7 (SMAD family member 7) | 3 | 90.9 | 104
Kcne3 | 1 | 67.5 | 102
